Values of other authors, collected in US20250334558A1, “TOTAL HYDROGEN SULFIDE QUANTIFICATION” (The Cleveland Clinic Foundation, priority 2022, published 2025).
Like-named read-outs stand apart in the source and are kept apart here. At least one structure is not confirmed: it was looked up by name or label, or the drawing left a doubt.

Settings: room temperature, cited from earlier work

S [H2S, Hydrogen sulfide]
fraction of H2S in gas form (pH 8): 10% | fraction of H2S in gas form (pH 10): less than 1%
